# According to the supplement of paper PMC8728848:
# This is one part of the list.
# B1: PX14343F-bfa-562-20-562 (Bacteroides fragilis) (protein)
# chain: CDDFLDSFPQDTVTNENFWKSKEDADKVLVDIYASLLPKDAIFFDEAMSDNAYLVWDWWGGAQQVANGSYTTSGEIPTNRWNGSYEVIRKCWFLLEGIEKIEDISEQDKNKIIGETYFMLAYNYYVLTSYFGDVPLVTKTLAIPESKQLVRTPKAEVVDYAINKLKEAAVMLEGLSQEKGRVTADACRFLIARMYLYNGDYSNVLETVKLLEGKYQLYREGDTPYEDLFSGVAENSCEVILSVVCDKRVGEIYTSHGGNGIMLLKGITGEDPYRGVTPSGSLVDAYPMADGRLIHEAGSSYDPKKPYEGRDPRFYQSIVYPTGQIKYLDVETGTVKERLYDPEDPTTVPEHQYNYSQPSATGYMWNKYIDYSVYAMNSVWDCTNDIIVFRYADVLLMKAEALLQTKGESAKEEVCNLIDQLRDRCSCGRVHRENYNSKDELMELLKNERRIELANEGLRYMDLIRWKDAEKNTIVTGVGLTGQMYGAYMRKDGVGKDDKTVDVDNTPRRYIETRYFNASKGYLFPIPQKERDLNPNLTQNPNW
# Columns and labels:
# Assay in all cases: glycan array binding signal (z-score within array); higher = stronger binding
# Details in all cases: glycan notation: IUPAC condensed, linker removed
# Fuc(a1-2)Gal = biological target: Fuc(a1-2)Gal
# Summary of the method: (§1)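 Glycan array data came from 3228 arrays in the Consortium for Functional Glycomics database, and only arrays with an available protein sequence were kept. Glycan names were put into IUPAC-condensed notation, and columns mapping to the same glycan were averaged. The binding signal is a within-array Z-score, averaged across arrays of one protein sequence run at different concentrations or buffers and across linkers. A negative Z-score can be read as non-binding.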
# Fuc(a1-2)Gal(b1-3)GalNAc = biological target: Fuc(a1-2)Gal(b1-3)GalNAc
# Summary of the method: as §1
# [1] = biological target: Fuc(a1-2)Gal(b1-3)GalNAc(a1-3)[Fuc(a1-2)]Gal(b1-4)Glc
# Summary of the method: as §1
# [2] = biological target: Fuc(a1-2)Gal(b1-3)GalNAc(a1-3)[Fuc(a1-2)]Gal(b1-4)GlcNAc
# Summary of the method: as §1
# [3] = biological target: Fuc(a1-2)Gal(b1-3)GalNAc(b1-3)Gal
# Summary of the method: as §1
# [4] = biological target: Fuc(a1-2)Gal(b1-3)GalNAc(b1-3)Gal(a1-4)Gal(b1-4)Glc
# Summary of the method: as §1
# [5] = biological target: Fuc(a1-2)Gal(b1-3)GalNAc(b1-4)[Neu5Ac(a2-3)]Gal(b1-4)Glc
# Summary of the method: as §1
# Fuc(a1-2)Gal(b1-3)GlcNAc = biological target: Fuc(a1-2)Gal(b1-3)GlcNAc
# Summary of the method: as §1
# [6] = biological target: Fuc(a1-2)Gal(b1-3)GlcNAc(b1-2)Man(a1-3)[Fuc(a1-2)Gal(b1-3)GlcNAc(b1-2)Man(a1-6)]Man(b1-4)GlcNAc(b1-4)GlcNAc
# Summary of the method: as §1
# [7] = biological target: Fuc(a1-2)Gal(b1-3)GlcNAc(b1-2)Man(a1-3)[Fuc(a1-2)Gal(b1-3)GlcNAc(b1-2)Man(a1-6)]Man(b1-4)GlcNAc(b1-4)[Fuc(a1-6)]GlcNAc
# Summary of the method: as §1
# [8] = biological target: Fuc(a1-2)Gal(b1-3)GlcNAc(b1-3)Gal(b1-4)Glc
# Summary of the method: as §1
# [9] = biological target: Fuc(a1-2)Gal(b1-3)GlcNAc(b1-3)GalNAc
# Summary of the method: as §1
# [10] = biological target: Fuc(a1-2)Gal(b1-3)GlcNAc(b1-3)[Fuc(a1-2)Gal(b1-3)GlcNAc(b1-6)]GalNAc
# Summary of the method: as §1
# [11] = biological target: Fuc(a1-2)Gal(b1-3)GlcNAc(b1-3)[Gal(b1-4)GlcNAc(b1-6)]Gal(b1-4)Glc
# Summary of the method: as §1
# [12] = biological target: Fuc(a1-2)Gal(b1-3)GlcNAc(b1-3)[Neu5Ac(a2-6)Gal(b1-4)GlcNAc(b1-6)]Gal(b1-4)Glc
# Summary of the method: as §1
# [13] = biological target: Fuc(a1-2)Gal(b1-3)GlcNAc6S
# Summary of the method: as §1
# [14] = biological target: Fuc(a1-2)Gal(b1-3)[Fuc(a1-4)]GlcNAc
# Summary of the method: as §1
# [15] = biological target: Fuc(a1-2)Gal(b1-3)[Fuc(a1-4)]GlcNAc(b1-2)Man(a1-3)[Fuc(a1-2)Gal(b1-3)[Fuc(a1-4)]GlcNAc(b1-2)Man(a1-3)]Man(b1-4)GlcNAc(b1-4)GlcNAc
# Summary of the method: as §1
# [16] = biological target: Fuc(a1-2)Gal(b1-3)[Fuc(a1-4)]GlcNAc(b1-2)Man(a1-3)[Fuc(a1-2)Gal(b1-3)[Fuc(a1-4)]GlcNAc(b1-2)Man(a1-6)]Man(b1-4)GlcNAc(b1-4)[Fuc(a1-6)]GlcNAc(b1-4)[Fuc(a1-6)]GlcNAc
# Summary of the method: as §1
# [17] = biological target: Fuc(a1-2)Gal(b1-3)[Fuc(a1-4)]GlcNAc(b1-3)[Fuc(a1-3)[Gal(b1-4)]GlcNAc(b1-6)]Gal(b1-4)Glc
# Summary of the method: as §1
# [18] = biological target: Fuc(a1-2)Gal(b1-3)[Fuc(a1-4)]GlcNAc(b1-3)[Gal(b1-4)GlcNAc(b1-6)]Gal(b1-4)Glc
# Summary of the method: as §1
# Fuc(a1-2)Gal(b1-4)Glc = biological target: Fuc(a1-2)Gal(b1-4)Glc
# Summary of the method: as §1
# Fuc(a1-2)Gal(b1-4)Glc6S = biological target: Fuc(a1-2)Gal(b1-4)Glc6S
# Summary of the method: as §1
# Fuc(a1-2)Gal(b1-4)GlcNAc = biological target: Fuc(a1-2)Gal(b1-4)GlcNAc
# Summary of the method: as §1
# [19] = biological target: Fuc(a1-2)Gal(b1-4)GlcNAc(b1-2)Man
# Summary of the method: as §1
# [20] = biological target: Fuc(a1-2)Gal(b1-4)GlcNAc(b1-2)Man(a1-3)[Fuc(a1-2)Gal(b1-4)GlcNAc(b1-2)Man(a1-6)]Man(b1-4)GlcNAc(b1-4)GlcNAc
# Summary of the method: as §1
# [21] = biological target: Fuc(a1-2)Gal(b1-4)GlcNAc(b1-2)Man(a1-3)[Fuc(a1-2)Gal(b1-4)GlcNAc(b1-2)Man(a1-6)]Man(b1-4)GlcNAc(b1-4)[Fuc(a1-6)]GlcNAc
# Summary of the method: as §1
# [22] = biological target: Fuc(a1-2)Gal(b1-4)GlcNAc(b1-2)[Fuc(a1-2)Gal(b1-4)GlcNAc(b1-4)]Man(a1-3)[Fuc(a1-2)Gal(b1-4)GlcNAc(b1-2)Man(a1-6)]Man(b1-4)GlcNAc(b1-4)GlcNAc
# Summary of the method: as §1
# [23] = biological target: Fuc(a1-2)Gal(b1-4)GlcNAc(b1-3)Gal(b1-4)GlcNAc
# Summary of the method: as §1
# [24] = biological target: Fuc(a1-2)Gal(b1-4)GlcNAc(b1-3)Gal(b1-4)GlcNAc(b1-2)Man(a1-3)[Fuc(a1-2)Gal(b1-4)GlcNAc(b1-3)Gal(b1-4)GlcNAc(b1-2)Man(a1-6)]Man(b1-4)GlcNAc(b1-4)GlcNAc
# Summary of the method: as §1
binder,measurement,setting,value
B1,glycan array binding signal (z-score),Fuc(a1-2)Gal,-0.039
same,glycan array binding signal (z-score),Fuc(a1-2)Gal(b1-3)GalNAc,-0.297
same,glycan array binding signal (z-score),[1],0.234
same,glycan array binding signal (z-score),[2],-0.228
same,glycan array binding signal (z-score),[3],-0.261
same,glycan array binding signal (z-score),[4],-0.467
same,glycan array binding signal (z-score),[5],0.115
same,glycan array binding signal (z-score),Fuc(a1-2)Gal(b1-3)GlcNAc,0.17
same,glycan array binding signal (z-score),[6],0.45
same,glycan array binding signal (z-score),[7],0.412
same,glycan array binding signal (z-score),[8],-0.008
same,glycan array binding signal (z-score),[9],0.411
same,glycan array binding signal (z-score),[10],-0.121
same,glycan array binding signal (z-score),[11],0.343
same,glycan array binding signal (z-score),[12],-0.007
same,glycan array binding signal (z-score),[13],-0.524
same,glycan array binding signal (z-score),[14],-0.089
same,glycan array binding signal (z-score),[15],-0.293
same,glycan array binding signal (z-score),[16],-0.286
same,glycan array binding signal (z-score),[17],-0.624
same,glycan array binding signal (z-score),[18],0.849
same,glycan array binding signal (z-score),Fuc(a1-2)Gal(b1-4)Glc,-0.391
same,glycan array binding signal (z-score),Fuc(a1-2)Gal(b1-4)Glc6S,0.255
same,glycan array binding signal (z-score),Fuc(a1-2)Gal(b1-4)GlcNAc,-0.367
same,glycan array binding signal (z-score),[19],-0.214
same,glycan array binding signal (z-score),[20],0.867
same,glycan array binding signal (z-score),[21],0.3
same,glycan array binding signal (z-score),[22],-0.23
same,glycan array binding signal (z-score),[23],-0.56
same,glycan array binding signal (z-score),[24],1.2

# Already shown: entries from further up.
binder,measurement,setting,value
B1,glycan array binding signal (z-score),[16],-0.286
same,glycan array binding signal (z-score),[17],-0.624
